Test results as given in PubChem BioAssay AID652054 (National Center for Advancing Translational Sciences (NCATS), 2013).
“And” between values parts separate entries of the source, which are not always exact repeats. Identical values can stand only once. About 9,100 (2.5%) of roughly 360,000 compounds were called active. Inconclusive means that the source gave no clear call. Such entries were picked first, then a sample of the others. Cut-off read from the data, not from the text of the source: active = max response below about -50%; inconclusive = no clear call, values can overlap the other calls; inactive = above that.

Sequences of proteins named here, by UniProt entry; tags and fusion partners are left off.
UniProt P35462, whole entry, looked up: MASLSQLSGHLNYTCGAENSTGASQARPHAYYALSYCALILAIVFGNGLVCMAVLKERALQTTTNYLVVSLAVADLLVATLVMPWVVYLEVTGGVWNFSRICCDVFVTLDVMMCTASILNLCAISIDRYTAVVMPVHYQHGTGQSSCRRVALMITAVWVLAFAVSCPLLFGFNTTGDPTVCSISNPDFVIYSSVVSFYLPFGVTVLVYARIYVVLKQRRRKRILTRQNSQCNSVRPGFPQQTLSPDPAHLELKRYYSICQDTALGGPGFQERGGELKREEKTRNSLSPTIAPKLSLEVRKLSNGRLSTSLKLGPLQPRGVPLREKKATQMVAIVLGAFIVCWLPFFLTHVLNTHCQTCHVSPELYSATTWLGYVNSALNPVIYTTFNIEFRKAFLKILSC

What follows are compounds tested against D(3) dopamine receptor (Homo sapiens) (UniProt P35462) (assay: qHTS of D3 Dopamine Receptor Antagonist: qHTS). Conditions: D3R cells, DiscoveRx beta-arrestin luminescence, antagonist mode; stronger effect = lower value.
In short: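 Cells plated overnight at 1500 cells/well, then exposed to library compounds with dopamine controls for 90 minutes at 37 degrees C. DiscoveRx reagent added for 30–60 minutes at room temperature; luminescence read, quantitative HTS format.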
% is set by controls: 0 for no effect and ±100 for the full control effect.

| Compound | max response, negative = inhibition |
| --- | --- |
| COc1ccccc1N1CCN(C(=O)c2ccc([N+](=O)[O-])s2)CC1 | inconclusive: -30.1% |
| CCCNC(=O)c1ccc(N2CCC3(CC2)CC(c2cccc(Br)c2)=NO3)c([N+](=O)[O-])c1 | inconclusive: -30.3% |
| COc1cc(OC)cc(C(=O)NCC2CCCN(Cc3ccc(SC)cc3)C2)c1 (stereo not drawn) | inconclusive: -48.2% |
| COc1cccc(CC(=O)Nc2ccc3c(c2)OC2(CCCC2)O3)c1 | inconclusive: -47% |
| CC1(C(=O)NCC2CC2)Cc2c(-c3cccc(C(F)(F)F)c3)ccnc2O1 (stereo not drawn) | inactive: 0.792% |
| Cc1ccc(C(=O)c2ccccc2C(=O)OCC(=O)Nc2ccc(SC(F)F)cc2)cc1 | inactive: 1.11% |
| COC(=O)C1=C(C)N(CC2CC2)C(=NCc2cc(OC)c(OC)c(OC)c2)N[C@H]1c1ccccc1 | inactive: -17.1% |
| Cc1cc(C)c2cc(C(=O)N(C)C3CCN(C)CC3)[nH]c2c1 | inconclusive: -30.8% |
| O=C1C2C(C(=O)N1/N=C/c1cc([N+](=O)[O-])ccc1O)C1C=CC2C12CC2 (stereo not drawn) | inconclusive: -44.5% |
| CCN(CC)CCN1C(=O)c2ccccc2NC1c1ccc(C)cc1 (stereo not drawn) | inactive: -18.2% |
| O=C(CSc1nnc(-c2ccco2)o1)NC(=O)C1COc2ccccc2O1 (stereo not drawn) | active: -55.3% |
| C/C(=N\NC(=O)c1cccc([N+](=O)[O-])c1)c1ccco1 | inactive: -8.86% |
| CCOc1cccc(/C=C/c2ccc3cccc(O)c3n2)c1OC | active: -82.7% |
| N#CCSc1ncnc2ccccc12 | active: -54.6% |
| Cc1cc(C)nc(N/N=C/C2=C(N3CCOCC3)C(=C/c3ccccc3)/CC2)n1 | inactive: -17.2% |
| CN(C(=O)COC(=O)/C=C/c1cccs1)c1c(N)n(Cc2ccccc2)c(=O)[nH]c1=O | inactive: 7.2% |
| O=[N+]([O-])c1ccccc1S(=O)(=O)Nc1ccc(S(=O)(=O)Nc2nccs2)cc1 | inconclusive: -35.2% |
| CC(/C=N/NC(=O)c1cnccn1)=C\c1ccco1 | inactive: 9.64% |
| O=C(Nc1ccc(F)cc1)N1CCc2ccccc2C1 | inactive: 13.6% |
| COc1ccccc1N(C)S(=O)(=O)c1ccc(C(=O)NC2CCCCCC2)cc1 | inconclusive: -33.3% |
| CN(C1=C(NC(=O)c2ccc(Cl)cc2)C(=O)c2ccccc2C1=O)c1ccccc1 | active: -51.6% |
| O=C(COC(=O)c1cccc2c1C(=O)c1ccccc1C2=O)NC1CCCCC1 | inactive: 66.7% |

| Compound | max response, negative = inhibition |
| --- | --- |
| O=C(/C=C/c1ccccc1Cl)N(Cc1ccc(Cl)cc1)C1CCS(=O)(=O)C1 (stereo not drawn) | inactive: 3.58% |
| CN1CCN(C2Cc3ccccc3Sc3cc(C(F)(F)F)ccc32)CC1 (stereo not drawn) | active: -96% |
| CC(C)(C)n1nnnc1C(c1cccs1)N1CCN(C/C=C/c2ccccc2)CC1 (stereo not drawn) | active: -122% |
| S=C(NCCc1ccccc1)N1CCN(Cc2ccc(Cl)c(Cl)c2)CC1 | inconclusive: -34.7% |
| CCOC(=O)N1CCN(C(=O)c2ccc3c(c2)N(Cc2ccccc2)CCS3)CC1 | inactive: 4.13% |
| CCNc1nc(NC(C)(C)C)nc(N2CCCCC2)n1 | inconclusive: -31% |
| O=C(CSc1ccccc1)NCCCc1ccccc1 | inactive: -29% |
| COc1ccc(OCCNC(=O)C(c2ccccc2)c2ccccc2)cc1 | inconclusive: -35.3% |
| O=C(/C=C/c1cccc(Cl)c1)NNC(=O)c1ccncc1 | inactive: -14.6% |
| CCOc1ccc(NC(=O)CC2C(=O)N(c3ccc(OC)cc3)C(=O)N2CCc2cccs2)cc1 (stereo not drawn) | inactive: 13.2% |
| O=[N+]([O-])c1ccc(NC(=S)NCc2ccc(F)cc2)cc1 | inconclusive: -42.1% |
| COC(=O)[C@]1(Cc2ccccc2)N[C@H](c2ccc(SC3CCCCC3)c(OC)c2)[C@@H]2C(=O)N(C)C(=O)[C@@H]21 | inconclusive: -38.5% |
| NS(=O)(=O)c1ccc(CCNCc2ccccc2OCc2ccc(F)cc2)cc1 | inconclusive: -42% |
| COc1cccc(Cn2cccc(NC(=O)Nc3cccc(C#N)c3)c2=O)c1 | inactive: -7.05% |
| COc1ccc(OC)c(-c2cc(C(=O)Nc3cc(C)on3)no2)c1 | inconclusive: -31% |
| CCOC(=O)C1CCN(S(=O)(=O)c2ccc3c(c2)CC(=O)N3C)CC1 | inconclusive: -32.8% |
| CNS(=O)(=O)c1ccc(CNC[C@H]2O[C@@H](n3cc(C)c(=O)[nH]c3=O)C[C@@H]2O)cc1 | inactive: 12.4% |
| O=C(NC(NNc1ccc([N+](=O)[O-])cc1)(C(F)(F)F)C(F)(F)F)c1ccc(Cl)cc1 | active: -74.2% |
| COc1ccc(F)cc1C(=O)C1CCCN(Cc2ccc3c(c2)OCCO3)C1 (stereo not drawn) | active: -105% |
| O=C(OCC(=O)N1CCc2ccccc21)c1ccccc1[N+](=O)[O-] | inconclusive: -30.7% |
| COc1cccc(NS(=O)(=O)c2cc3c(cc2C)NC(=O)CO3)c1 | inconclusive: -35.9% |
| CCN1CCN(c2nc(C)c3c(n2)CCCC3=O)CC1 | inconclusive: -45.2% |

| Compound | max response, negative = inhibition |
| --- | --- |
| Cc1nc2ccc(NC(=O)c3ccc4ccccc4n3)cc2s1 | inactive: 8.09% |
| Cc1ccccc1OCCNc1cc(N2CC(C)NC(C)C2)ccc1[N+](=O)[O-] (stereo not drawn) | inconclusive: -41.8% |
| Cc1ccc(-n2ncc3c2CC(C)(C)CC3NC(=O)c2ccccn2)cc1 (stereo not drawn) | inactive: 7.83% |
| CCc1nc2c(OCCC3CCCCC3)cccn2c1N(C)C(=O)C(C)C | inconclusive: -35.5% |
| Cc1ccc(S(=O)(=O)c2nc(-c3ccccc3)oc2NCCCN2CCOCC2)cc1 | active: -75.9% |
| COc1ccc(C(C(=O)NC2CCCC2)n2c(C3CCN(C(C)=O)CC3)nc3ccccc32)cc1 (stereo not drawn) | active: -50.2% |
| CC(C)N(C)C(=O)c1ccc(OC2CCN(CCc3ccccc3)CC2)cc1 | inconclusive: -36.4% |
| CCOc1ccc(CCNC(=O)COC(=O)c2c(C)nn(-c3ccccc3)c2C)cc1OCC | inactive: 9.7% |
| C=CCc1ccc(OCC(O)CN2CCN(c3ccccc3OC)CC2)c(OC)c1 (stereo not drawn) | active: -103% |
| Cc1ccc(NC(=O)CN(C)C(=O)/C=C/c2ccc3c(c2)OCO3)cc1 | inactive: -19.2% |
| Cc1ccc(C(=O)NCN2CCN(c3ccc(F)cc3)CC2)cc1 | inconclusive: -49.2% |
| Cc1cc(NC(=O)CSc2ccc(Cl)cc2)no1 | inactive: -12% |
| COC1OC(c2ccccc2)=C(c2cnc(N)nc2)c2ccc(F)cc21 (stereo not drawn) | inactive: 37.7% |
| Cc1cc(NC(=O)CC2CCCC2)ccc1Br | inactive: -25.2% |
| CCN(CC)c1ccc(/C=N/NC(=O)c2cccc(N3CCCC3=O)c2)cc1 | inactive: -11% |
| CC(O)CNCc1cccc2ccccc12 (stereo not drawn) | inconclusive: -36.5% |
| O=C(NCc1ccco1)c1cccn2c(=O)c3c4c(sc3nc12)CCCC4 | inconclusive: -32.3% |
| Cc1sc2ncnc(NCC(O)c3ccccc3)c2c1C (stereo not drawn) | inactive: 15% |
| CCN1CCN(C(=S)c2ccc(OCC(=O)Nc3ccc(OC)cc3)cc2)CC1 | inconclusive: -39% |
| COC(=O)c1ccc(COC(=O)CNS(=O)(=O)c2ccccc2)cc1 | inactive: 1.7% |
| O=C(Cn1nc(C(F)(F)F)c2c1CCC2)N1CCN(c2ccccc2)CC1 | inactive: 21.3% |
| COc1ccc(/C=N/NC(=O)c2nc(-c3ccccc3)cc(-c3ccccc3)n2)cc1 | inactive: 0% |

| Compound | max response, negative = inhibition |
| --- | --- |
| O=C(Cn1cc(C(F)(F)F)ccc1=O)Nc1ccccc1 | inactive: -11.8% |
| COc1ccc(OC)c(NC(=O)CCN2CCC(C)CC2)c1 | active: -50.8% |
| O=P(c1ccccc1)(c1ccccc1)N(c1ccccc1)c1ccccc1 | active: -53.5% |
| Cc1cc2c(=O)n(CC(=O)N3CCN(c4ccccc4)CC3)cnc2s1 | inactive: 27.8% |
| Cc1nc(CCNC(=O)c2cccs2)cs1 | inconclusive: -43.6% |
| O=C(NCCO)C(=O)c1c(-c2ccc(Cl)cc2)cc2ccccn12 | inactive: 4.42% |
| CCOc1ccccc1N1CCN(CC(=O)NC(=O)NCc2ccco2)CC1 | inconclusive: -33.1% |
| Cc1cc(C)nc(NS(=O)(=O)c2ccc(Br)s2)c1 | inconclusive: -34.9% |
| CC(C)OCCCNc1ncc2c(n1)CC(c1cccs1)CC2=O (stereo not drawn) | inconclusive: -33.5% |
| COc1ccc(OC)c(NC(=O)CSc2nnnn2-c2ccccc2F)c1 | inconclusive: -30.9% |
| Cc1ccccc1OCC(=O)Nc1ccc(Cc2ccncc2)cc1 | inconclusive: -31.9% |
| Cc1cc(C)n(-c2cc(N3CCN(S(=O)(=O)c4ccc5ccccc5c4)CC3)ccc2[N+](=O)[O-])n1 | active: -55.1% |
| C=C(C)C(=O)O[C@H]1C/C(C)=C\C(=O)/C=C(\C)[C@H](O)[C@@H]2OC(=O)C(=C)[C@@H]21 | active: -61.4% |
| CN1Cc2c(N)cccc2C(c2ccccc2)C1 (stereo not drawn) | active: -62.5% and inconclusive: -46.8% |
| COc1ccc(CN2CCN(S(=O)(=O)c3ccccc3)CC2)c(OC)c1 | active: -69.5% |
| O=C(O)c1cc(-c2ccc(N3CCOCC3)cc2)nn1-c1ccccc1Cl | inconclusive: -38.2% |
| Cc1cc(C)c(C)c(S(=O)(=O)N2CCNC(=O)C2)c1C | inactive: 19.3% |
| CC(CN(C)Cc1ccccc1)OC(=O)c1cccc(F)c1 (stereo not drawn) | active: -60% |
| COC(=O)[C@]12CCCCC=C1N(CCc1ccc(OC)c(OC)c1)C(=O)[C@H](CC(=O)NCCc1ccccc1OC)C2 | inactive: -16.2% |
| CCOc1ccc(C(=O)Nc2ccc(-c3nc4ccccc4[nH]3)cc2)cc1[N+](=O)[O-] | inactive: 4.94% |
| Cc1cccc(NC(=O)CSc2cc(C)c(C#N)c3nc4ccccc4n23)c1 | inactive: -11.8% |
| Cn1c(N)c(C(=O)CSc2nc(C3CC3)n(-c3ccccc3)n2)c(=O)n(C)c1=O | inactive: -23.3% |
